Key:
[1] = Personal care cleansing: mechanical shake foam test; settings: 0.2% total surfactant actives, 25° C. tap water
[2] = Emulsion polymerization surfactant screen; settings: surfactant level in EP 0.50%
Protocol: A reaction kettle is charged with sodium bicarbonate (0.50 g), water (225 g), and seed latex (30 g) and the mixture is heated to and held at 83° C. under nitrogen with stirring at 200 rpm. […] Methyl methacrylate (255 g), butyl acrylate (235 g), and methacrylic acid (10 g) are combined in an Erlenmeyer flask and mixed. […] Separately, two other mixtures are prepared: an initiator shot mixture of ammonium persulfate (1.0 g) in water (20 g), and a cofeed mixture of ammonium persulfate (2.70 g), sodium bicarbonate (1.50 g), and water (75 g); the total amount of initiator used is 0.74% based on monomers. The initiator shot is charged to the 83° C. reaction kettle dropwise over 1 min, then held for 10 min. The monomer emulsion is then fed to the kettle at 2.1 mL/min. for 10 min. The feed rate of the monomer emulsion is increased to 4.2 mL/min., and the cofeed mixture is started at 0.37 mL/min. Total addition time is 3 h, during which particle size and temperature are monitored. After addition of the monomer emulsion is complete, a water wash (50 g) is started, and heating at 83° C. continues for 1 h. The product is cooled. The pH is adjusted to 7.5 with dilute ammonium hydroxide solution. A preservative is added, and the mixture is filtered.

[3] = Laundry detergents: evaluation as a primary anionic surfactant (soil removal index); settings: versus Steol CS-370

**Q.** With C12 Alcohol Sodium Sulfate [A12-3] as the compound, how does the “Foam Height, 5 min” value ([1]; Castor oil added) read?
**A.** 110 mL

**Q.** And the “Foam Height, initial” value ([1]; Castor oil added)?
**A.** 310 mL

**Q.** And the “Foam Height, 5 min” value ([1]; No oil added)?
**A.** 350 mL

**Q.** What about the “Foam Height, initial” value ([1]; No oil added) of the same compound?
**A.** 350 mL

**Q.** And the “Particle size (nm)” value ([2]; 0.5 h)?
**A.** 126 nm

**Q.** What about the “Particle size (nm)” value ([2]; 1.0 h) of the same compound?
**A.** 153 nm

**Q.** What about the “Particle size (nm)” value ([2]; 2.0 h) of the same compound?
**A.** 190 nm

**Q.** And the “Particle size (nm)” value ([2]; Final)?
**A.** 208 nm

**Q.** What about the “coagulum (%)” value [2] of the same compound?
**A.** 0.08%

**Q.** For `CCCCC=CCCCCCCCCOCCOCCOCCOS(=O)(=O)[O-].[Na+]` (mixture of isomers) [A14-7, 3 Mole Ethoxylated C14 Alcohol, Sodium Sulfate], which ΔSRI values ([3]; beef tallow (BT)) is on record?
**A.** 0.5

**Q.** And the ΔSRI values ([3]; blood/ink/milk on cotton (EMPA 116))?
**A.** 0.1

**Q.** What about the ΔSRI values ([3]; blueberry on cotton (BC)) of the same compound?
**A.** −0.5

**Q.** What about the ΔSRI values ([3]; clay on cotton (CC)) of the same compound?
**A.** 0.0

**Q.** What about the ΔSRI values ([3]; clay on cotton/polyester (CCP)) of the same compound?
**A.** 0.0

**Q.** What about the ΔSRI values ([3]; cocoa on cotton (EMPA 112)) of the same compound?
**A.** 0.6

**Q.** And the ΔSRI values ([3]; coffee on cotton (COFC))?
**A.** −0.5

**Q.** And the ΔSRI values ([3]; dust sebum on cotton (DSC))?
**A.** 0.2

**Q.** And the ΔSRI values ([3]; dust sebum on cotton/polyester (DSCP))?
**A.** 0.2

**Q.** And the ΔSRI values ([3]; grass on cotton (GC))?
**A.** 0.7

**Q.** And the ΔSRI values ([3]; make-up on cotton (EMPA 143))?
**A.** 0.1

**Q.** What about the ΔSRI values ([3]; red wine on cotton (RWC)) of the same compound?
**A.** −0.4

**Q.** And the ΔSRI values ([3]; sebum tefo (ST))?
**A.** 0.8
